Test results: the supplement of paper PMC3334620
In all, about 33,000 sequences were measured (“E-score (-0.5 to 0.5)”: median about -0.0014, highest 2% from about 0.25 on). The list shows a part of the results.

The sequences below were run against T1, Cad1 (UniProt P24813) (assay: PBM E-score (8-mer binding enrichment) (E-score (-0.5 to 0.5)); higher = stronger / more preferred TF binding). Conditions: protein concentration: 100 nM; construct: GST-full length.
T1 sequence: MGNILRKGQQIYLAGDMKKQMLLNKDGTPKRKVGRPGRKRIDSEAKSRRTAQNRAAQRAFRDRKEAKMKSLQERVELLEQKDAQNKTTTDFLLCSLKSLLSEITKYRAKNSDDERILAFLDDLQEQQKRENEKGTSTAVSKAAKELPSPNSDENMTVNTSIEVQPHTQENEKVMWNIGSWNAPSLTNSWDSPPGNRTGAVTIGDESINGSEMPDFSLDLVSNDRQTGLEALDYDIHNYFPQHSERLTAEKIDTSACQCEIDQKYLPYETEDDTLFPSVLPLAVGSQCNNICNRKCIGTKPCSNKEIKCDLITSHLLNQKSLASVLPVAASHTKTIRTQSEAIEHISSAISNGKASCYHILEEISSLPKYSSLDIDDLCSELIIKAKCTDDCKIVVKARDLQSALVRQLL
Summary of the method: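 Using PURExpress in vitro transcription/translation, GST-tagged yeast transcription factors were made in full-length or DNA-binding-domain form. These were applied at about 100-200 nM to double-stranded universal all-10-mer Agilent arrays, and bound protein was detected with fluorescent anti-GST. Scans were normalised with masliner before the Universal PBM Analysis Suite assigned E-scores to ungapped eight-base words pooled with their reverse complements.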

Row | Sequence | PBM E-score
1 | CTCATCAC | -0.0666
2 | TGGCTACA | -0.092
3 | CAAACAAA | 0.105
4 | AAGGGAGA | -0.319
5 | CACCTTGC | 0.054
6 | GGTTGAAA | -0.0335
7 | AAGTGTAC | 0.0601
8 | GTGATTGA | 0.0929
9 | CGCAAACC | 0.111
10 | AGGAGTTC | -0.189
11 | AACTTCAG | 0.0295
12 | ACCTGCTG | 0.11
13 | AAGGAAGA | -0.172
14 | AAACCCGA | 0.172
15 | AGGCATGC | 0.0717
16 | CCCATGTA | -0.002
17 | CGCGAGAC | 0.04
18 | TAGTGTAA | 0.13
19 | TATGCCCA | -0.124
20 | AAATGCAC | -0.0236
21 | ATCAAGTG | 0.0499
22 | GAGATAGA | -0.0537
23 | TCCATGGA | 0.0715
24 | GGCCTCTA | -0.191
25 | CCATATTA | 0.148

Row | Sequence | PBM E-score
26 | CATTGGAA | 0.0544
27 | ACCATCAG | -0.00772
28 | ACTTCACC | 0.0478
29 | AGCTTATA | 0.0356
30 | CCCTGAGC | 0.0625
31 | ACTATAGG | -0.161
32 | CGGGGGAC | -0.376
33 | CAAAGTAG | -0.00251
34 | AATCTCCA | -0.079
35 | ACGGTGGA | -0.168
36 | GAGCCCAC | -0.1
37 | CCTGAACA | 0.00572
38 | CCTAAGTC | -0.17
39 | AGTGAAAT | -0.00397
40 | AGGCAGAC | -0.202
41 | GACTTCTA | -0.174
42 | ACTCGACT | -0.153
43 | GGGCGTAA | -0.12
44 | CTGGCCTC | -0.171
45 | CCTCTAAG | -0.191
46 | ATTACAGA | 0.152
47 | AAGAAGTG | 0.0756
48 | ATACGTAC | -0.0354
49 | CGTTCATC | 0.194
50 | CAAGGTAC | -0.0491

Row | Sequence | PBM E-score
51 | CATGTCTC | -0.00519
52 | GGTGGCAA | -0.0998
53 | AGAGTTGG | -0.0857
54 | CAACGTAA | -0.119
55 | ATAATTGC | 0.0171
56 | CGATAAGA | 0.14
57 | CGTCTGAG | 0.0617
58 | CTACTGAA | -0.0466
59 | TACTTCAA | 0.08
60 | CGGGCAAG | 0.0794
61 | GTCGGGAA | -0.0156
62 | CCCCCGTA | -0.359
63 | CCTACCTC | -0.173
64 | CTATATTA | 0.241
65 | ATGACCCA | 0.053
66 | CCCATAGC | -0.196
67 | CCAAATTC | 0.1
68 | CCCTGGAG | -0.252
69 | ATTGTAGG | 0.139
70 | AGGGGACA | -0.0975
71 | AGGCTTCA | -0.235
72 | ATGTTCCA | 0.167
73 | CCTAGAAG | -0.258
74 | CTGAATTC | -0.118
75 | ACTCTGGA | 0.0695

Row | Sequence | PBM E-score
76 | GCTACCAA | -0.131
77 | GCCGCGCC | -0.0221
78 | AGATAGTG | 0.155
79 | ACTGGAGG | 0.0173
80 | GCCTCGAA | 0.214
81 | TAGGCCTA | 0.0698
82 | GCGTTGCA | 0.0261
83 | AAAGCCTG | -0.173
84 | ATAGGGAC | -0.0945
85 | CTAAACCA | -0.00096
86 | ATATCATC | 0.117
87 | ACTGCGCT | 0.0812
88 | TCGTACCA | 0.116
89 | ACGGATTA | 0.0793
90 | AATGTGAA | 0.194
91 | CCAGTCTC | -0.286
92 | AACCTCAC | -0.112
93 | CCACCACG | -0.00489
94 | GCCAAGCC | -0.167
95 | AGAATTTA | 0.0084
96 | TCGTTTAA | 0.182
97 | AATGATGA | 0.0927
98 | CTGGGATA | -0.0818
99 | CCAGGGGA | -0.337
100 | CTTACCGA | 0.0852

Row | Sequence | PBM E-score
101 | AAGCATGA | 0.00455
102 | TCGCGACA | 0.131
103 | TCGCTCAA | 0.12
104 | TCGCAAAA | 0.0718
105 | GGCGATAC | 0.00689
106 | GATACGCA | 0.0684
107 | GGCAAGAA | 0.0127
108 | GGGGCACA | -0.224
109 | GAGCAGGA | -0.127
110 | ATTCATGC | 0.0369
111 | GTTCGCTA | -0.00037
112 | ACCCTGAA | 0.00194
113 | AGCAACGA | 0.0529
114 | GATCAACC | -0.141
115 | TAAGAACA | 0.275
116 | ACACAGTG | 0.0512
117 | GTTCTTTA | 0.111
118 | AAGGGTGG | -0.126
119 | ATTGAGGA | -0.00258
120 | ACGTATGC | 0.00905
121 | TCTAATAA | 0.0758
122 | ATATATAG | 0.175
123 | AGCCACCA | -0.0565
124 | CTCCTGTC | -0.0338
125 | ATAAGGAG | -0.143

Reformatted: results already given.
Row	Sequence	PBM E-score
101	AAGCATGA	0.00455
104	TCGCAAAA	0.0718
107	GGCAAGAA	0.0127
108	GGGGCACA	-0.224
115	TAAGAACA	0.275
119	ATTGAGGA	-0.00258
124	CTCCTGTC	-0.0338

The list continues.

Row | Sequence | PBM E-score
126 | GCCGTTAC | -0.0626
127 | CTCCATCA | -0.114
128 | GGTGGCAC | -0.149
129 | CGAAACCG | 0.198
130 | GCCACAGA | -0.171
131 | CAACTATC | 0.0712
132 | AATGGGCA | -0.0642
133 | CTGTGCAC | -0.204
134 | CAACAAGG | 0.115
135 | AAAAATGA | 0.12
136 | CAAAGGAC | -0.277
137 | ATTTTTAA | 0.241
138 | CGATGGTA | 0.0436
139 | ACGCGCCA | -0.0612
140 | AGTCAAGC | -0.226
141 | GCAACACC | 0.102
142 | AATAACGG | 0.253
143 | GACGATGC | 0.0139
144 | CCACCCAA | -0.137
145 | AGCTACGG | -0.113
146 | TCGCGAGA | 0.165
147 | ATGAATAA | 0.189
148 | GACGGACC | 0.142
149 | AGGGAACT | -0.19
150 | GCTATGGA | -0.0753

Row | Sequence | PBM E-score
151 | CAAGGGCG | -0.228
152 | ATCTGGGA | -0.016
153 | CTCCTTCC | -0.19
154 | ACGCAGAT | -0.0666
155 | CGCGCATC | -0.0854
156 | GAATCAGA | 0.0939
157 | AGATAGAC | 0.0347
158 | ATATATGC | 0.134
159 | ACGCTTGG | -0.0308
160 | CTGCTTGA | -0.114
161 | CAAGATTC | 0.0824
162 | ACAGTATC | 0.0125
163 | AGCTAACT | -0.087
164 | CTACGATA | 0.0977
165 | GTGGCGCA | -0.0767
166 | TCCTGAAA | 0.0543
167 | CCGTCCAC | 0.0714
168 | AGGTTATC | -0.0475
169 | AGACTGTA | -0.0872
170 | ATCACGTC | 0.179
171 | AATGAAAA | 0.152
172 | ACTGTCGG | 0.00644
